In article PMC8242032, “Non-canonical function of DGCR8 in DNA double-strand break repair signaling and tumor radioresistance” (Nature Communications, 2021) one finds binding data, which are given here for eight molecules.

The chains behind the UniProt entries cited, without tags or fusion partners.
UniProt Q9UNE7: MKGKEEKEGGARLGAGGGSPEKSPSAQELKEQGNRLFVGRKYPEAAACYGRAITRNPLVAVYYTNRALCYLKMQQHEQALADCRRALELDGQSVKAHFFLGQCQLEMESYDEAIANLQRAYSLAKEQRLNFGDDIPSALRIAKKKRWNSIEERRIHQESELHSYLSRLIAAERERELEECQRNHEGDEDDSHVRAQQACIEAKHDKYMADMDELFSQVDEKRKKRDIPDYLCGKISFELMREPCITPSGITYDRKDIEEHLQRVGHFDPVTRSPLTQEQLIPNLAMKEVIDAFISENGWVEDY
UniProt Q14676: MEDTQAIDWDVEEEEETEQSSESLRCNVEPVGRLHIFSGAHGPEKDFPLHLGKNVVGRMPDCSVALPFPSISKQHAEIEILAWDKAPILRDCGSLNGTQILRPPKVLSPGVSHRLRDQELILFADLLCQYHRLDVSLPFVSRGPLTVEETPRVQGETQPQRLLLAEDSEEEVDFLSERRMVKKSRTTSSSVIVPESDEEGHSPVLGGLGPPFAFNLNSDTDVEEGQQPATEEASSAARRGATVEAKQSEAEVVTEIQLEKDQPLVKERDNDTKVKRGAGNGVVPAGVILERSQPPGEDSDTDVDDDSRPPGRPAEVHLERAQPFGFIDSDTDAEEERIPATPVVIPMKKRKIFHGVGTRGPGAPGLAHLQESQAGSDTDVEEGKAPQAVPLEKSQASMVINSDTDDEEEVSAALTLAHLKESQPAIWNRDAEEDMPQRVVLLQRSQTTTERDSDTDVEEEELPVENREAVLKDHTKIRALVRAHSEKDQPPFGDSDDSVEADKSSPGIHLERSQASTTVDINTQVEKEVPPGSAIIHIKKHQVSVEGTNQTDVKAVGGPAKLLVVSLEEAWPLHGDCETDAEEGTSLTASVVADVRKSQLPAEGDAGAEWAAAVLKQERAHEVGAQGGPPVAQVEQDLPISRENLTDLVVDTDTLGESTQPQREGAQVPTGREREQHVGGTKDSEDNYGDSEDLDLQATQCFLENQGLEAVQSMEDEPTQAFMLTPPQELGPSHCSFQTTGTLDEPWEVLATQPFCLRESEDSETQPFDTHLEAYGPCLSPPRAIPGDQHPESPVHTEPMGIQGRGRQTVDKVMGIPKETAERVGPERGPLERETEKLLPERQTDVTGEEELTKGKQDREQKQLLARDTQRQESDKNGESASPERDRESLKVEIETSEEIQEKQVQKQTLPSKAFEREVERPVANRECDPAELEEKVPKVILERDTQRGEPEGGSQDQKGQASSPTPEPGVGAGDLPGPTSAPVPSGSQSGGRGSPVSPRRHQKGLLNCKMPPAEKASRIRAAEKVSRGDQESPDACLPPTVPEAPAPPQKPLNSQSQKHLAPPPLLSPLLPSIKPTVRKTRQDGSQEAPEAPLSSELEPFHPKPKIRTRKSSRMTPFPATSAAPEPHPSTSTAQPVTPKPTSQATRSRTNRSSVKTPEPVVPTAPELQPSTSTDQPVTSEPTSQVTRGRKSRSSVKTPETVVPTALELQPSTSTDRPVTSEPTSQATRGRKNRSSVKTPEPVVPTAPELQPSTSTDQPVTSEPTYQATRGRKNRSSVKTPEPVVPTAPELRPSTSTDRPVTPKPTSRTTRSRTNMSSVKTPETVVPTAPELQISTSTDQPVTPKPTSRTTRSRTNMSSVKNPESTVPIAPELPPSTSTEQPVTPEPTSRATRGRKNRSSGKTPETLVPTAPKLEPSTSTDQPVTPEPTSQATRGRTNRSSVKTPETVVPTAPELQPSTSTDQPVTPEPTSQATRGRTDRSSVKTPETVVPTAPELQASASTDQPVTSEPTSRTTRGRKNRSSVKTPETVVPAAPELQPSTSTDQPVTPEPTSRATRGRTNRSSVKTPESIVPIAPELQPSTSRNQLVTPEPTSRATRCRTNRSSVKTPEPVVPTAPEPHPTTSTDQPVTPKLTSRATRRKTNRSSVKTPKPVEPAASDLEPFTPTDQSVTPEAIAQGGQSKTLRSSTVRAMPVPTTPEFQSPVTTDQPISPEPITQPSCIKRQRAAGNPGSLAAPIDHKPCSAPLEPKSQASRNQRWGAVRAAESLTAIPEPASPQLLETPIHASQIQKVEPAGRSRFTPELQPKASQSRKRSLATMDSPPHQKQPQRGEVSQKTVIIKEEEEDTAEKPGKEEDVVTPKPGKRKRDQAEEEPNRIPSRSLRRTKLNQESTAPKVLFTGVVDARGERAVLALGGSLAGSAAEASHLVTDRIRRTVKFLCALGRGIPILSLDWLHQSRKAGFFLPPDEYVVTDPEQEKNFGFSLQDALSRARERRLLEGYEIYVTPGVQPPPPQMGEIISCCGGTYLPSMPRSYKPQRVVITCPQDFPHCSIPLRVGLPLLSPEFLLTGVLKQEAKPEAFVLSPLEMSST
UniProt Q7Z6E9: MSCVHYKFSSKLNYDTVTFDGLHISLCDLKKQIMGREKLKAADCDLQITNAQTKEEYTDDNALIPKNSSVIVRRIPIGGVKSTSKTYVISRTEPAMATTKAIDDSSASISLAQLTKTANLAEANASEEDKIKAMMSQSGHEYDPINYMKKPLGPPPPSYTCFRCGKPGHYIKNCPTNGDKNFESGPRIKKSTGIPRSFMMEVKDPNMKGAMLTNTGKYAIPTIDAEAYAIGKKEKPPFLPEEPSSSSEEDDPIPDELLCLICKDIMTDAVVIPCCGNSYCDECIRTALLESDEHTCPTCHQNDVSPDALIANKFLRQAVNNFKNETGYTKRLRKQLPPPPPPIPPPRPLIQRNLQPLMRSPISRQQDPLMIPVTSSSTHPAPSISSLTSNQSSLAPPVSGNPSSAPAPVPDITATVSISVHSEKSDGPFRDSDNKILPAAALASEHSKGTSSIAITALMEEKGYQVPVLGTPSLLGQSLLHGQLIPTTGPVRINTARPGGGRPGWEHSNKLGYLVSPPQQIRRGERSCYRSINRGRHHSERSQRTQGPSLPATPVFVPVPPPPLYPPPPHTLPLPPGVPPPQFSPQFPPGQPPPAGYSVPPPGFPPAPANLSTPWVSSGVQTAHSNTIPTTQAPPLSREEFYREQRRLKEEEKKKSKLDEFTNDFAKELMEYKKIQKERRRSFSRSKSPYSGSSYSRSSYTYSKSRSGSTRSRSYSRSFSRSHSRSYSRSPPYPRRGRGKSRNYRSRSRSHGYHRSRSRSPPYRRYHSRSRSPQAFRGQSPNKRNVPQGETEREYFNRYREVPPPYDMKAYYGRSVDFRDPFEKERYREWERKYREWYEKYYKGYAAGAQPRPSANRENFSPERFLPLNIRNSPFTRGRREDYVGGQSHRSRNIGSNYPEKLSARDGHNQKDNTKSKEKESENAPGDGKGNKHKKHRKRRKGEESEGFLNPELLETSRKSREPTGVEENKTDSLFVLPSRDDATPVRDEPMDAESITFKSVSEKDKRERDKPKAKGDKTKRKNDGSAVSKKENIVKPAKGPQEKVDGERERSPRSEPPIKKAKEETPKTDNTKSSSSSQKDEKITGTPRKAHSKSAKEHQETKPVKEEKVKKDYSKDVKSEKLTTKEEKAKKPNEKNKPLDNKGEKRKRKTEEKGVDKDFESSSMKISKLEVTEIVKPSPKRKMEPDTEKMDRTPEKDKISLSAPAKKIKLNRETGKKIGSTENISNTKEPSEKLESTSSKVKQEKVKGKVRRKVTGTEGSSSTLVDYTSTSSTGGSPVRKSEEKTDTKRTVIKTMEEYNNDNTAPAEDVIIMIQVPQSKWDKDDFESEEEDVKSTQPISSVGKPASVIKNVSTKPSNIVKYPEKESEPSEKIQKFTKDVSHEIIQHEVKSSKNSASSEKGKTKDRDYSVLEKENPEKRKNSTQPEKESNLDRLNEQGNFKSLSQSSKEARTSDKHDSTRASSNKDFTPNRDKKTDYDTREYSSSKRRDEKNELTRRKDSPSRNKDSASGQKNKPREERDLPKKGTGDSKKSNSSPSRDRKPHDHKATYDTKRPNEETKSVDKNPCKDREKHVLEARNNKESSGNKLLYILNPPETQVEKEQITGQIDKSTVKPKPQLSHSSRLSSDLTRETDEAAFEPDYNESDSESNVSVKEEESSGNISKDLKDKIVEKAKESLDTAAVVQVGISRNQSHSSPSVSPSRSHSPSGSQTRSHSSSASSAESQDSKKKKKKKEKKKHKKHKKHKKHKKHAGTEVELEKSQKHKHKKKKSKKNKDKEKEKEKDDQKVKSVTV
UniProt Q8IYW5: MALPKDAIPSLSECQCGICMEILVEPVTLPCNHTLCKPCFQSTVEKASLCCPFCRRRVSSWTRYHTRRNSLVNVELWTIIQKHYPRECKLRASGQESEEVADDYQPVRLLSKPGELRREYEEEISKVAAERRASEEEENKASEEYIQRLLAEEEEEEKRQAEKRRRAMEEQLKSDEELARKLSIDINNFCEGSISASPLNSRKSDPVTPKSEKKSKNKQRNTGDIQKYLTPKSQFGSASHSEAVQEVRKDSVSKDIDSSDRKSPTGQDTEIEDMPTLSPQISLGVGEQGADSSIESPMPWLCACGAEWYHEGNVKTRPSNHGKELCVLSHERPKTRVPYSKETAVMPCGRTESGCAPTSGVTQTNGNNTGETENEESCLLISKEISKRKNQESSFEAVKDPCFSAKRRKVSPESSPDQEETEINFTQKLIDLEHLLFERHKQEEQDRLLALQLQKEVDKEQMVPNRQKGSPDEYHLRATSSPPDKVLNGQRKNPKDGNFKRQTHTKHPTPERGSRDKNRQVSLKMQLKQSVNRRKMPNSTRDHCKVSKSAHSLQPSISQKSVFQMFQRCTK

In assay [1] the target is T1, SFB-DGCR8 (triple epitope: S-protein, FLAG tag and streptavidin-binding peptide-tagged DGCR8) (human) (UniProt Q8WYQ5).
T1 sequence: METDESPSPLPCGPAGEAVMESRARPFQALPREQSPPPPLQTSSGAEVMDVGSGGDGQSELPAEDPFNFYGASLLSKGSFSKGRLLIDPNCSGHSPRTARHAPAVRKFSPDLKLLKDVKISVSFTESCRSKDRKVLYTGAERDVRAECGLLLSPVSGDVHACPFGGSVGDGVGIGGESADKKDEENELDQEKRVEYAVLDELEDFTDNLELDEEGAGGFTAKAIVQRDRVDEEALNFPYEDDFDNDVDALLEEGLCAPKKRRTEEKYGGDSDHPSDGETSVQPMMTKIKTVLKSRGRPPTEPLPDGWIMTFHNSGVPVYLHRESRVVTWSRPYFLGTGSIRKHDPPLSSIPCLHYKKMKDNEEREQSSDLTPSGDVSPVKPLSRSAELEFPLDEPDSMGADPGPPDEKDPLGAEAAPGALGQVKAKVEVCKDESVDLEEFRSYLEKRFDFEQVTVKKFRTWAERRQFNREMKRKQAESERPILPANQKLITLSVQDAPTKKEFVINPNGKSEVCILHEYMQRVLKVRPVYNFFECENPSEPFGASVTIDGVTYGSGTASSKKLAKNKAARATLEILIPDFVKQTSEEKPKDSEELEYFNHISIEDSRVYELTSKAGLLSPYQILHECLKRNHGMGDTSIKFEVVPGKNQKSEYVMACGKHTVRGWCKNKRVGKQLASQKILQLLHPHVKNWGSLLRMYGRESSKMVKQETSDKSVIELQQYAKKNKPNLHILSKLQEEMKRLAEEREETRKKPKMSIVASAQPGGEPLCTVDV
The assay is described as follows: affinity purification with mass spectrometry; SFB-DGCR8 transfected into LM2 cells, with or without 8 Gy X-rays followed by 1 h; tandem purification on streptavidin-sepharose beads then S-protein agarose beads, NETN buffer, 4 °C.

Assay [2] addresses T1, SFB-DGCR8 (triple epitope: S-protein, FLAG tag and streptavidin-binding peptide-tagged DGCR8) (human). Nature of the assay: affinity purification with mass spectrometry; as a1, the non-irradiated LM2 cells only.

These are yes or no findings as the source states them, for the method shown. In cells and extracts the contact can be indirect. A yes stands for co-enrichment or nearness to the bait. Other partners may have been found. For some of these results: A no says only that the protein was not detected with the bait. Sequences can lack the tags named with a protein.

Consider “CHIP (from UniProt Q9UNE7 1-303) (enzyme)”, for which the binding result in assay [1] is recorded as “binds”.

For the molecule “HUWE1 (from UniProt Q7Z6Z7 1-4374) (enzyme)”, the binding entry in assay [1] is recorded as “binds”.

Turning to “MDC1 (endogenous) (from UniProt Q14676 1-2089)”, the binding entry in assay [1] was “binds”; in assay [2], “no binding (only non-irradiated cells)”.

As to “RBBP6 (from UniProt Q7Z6E9 1-1792) (enzyme)”, the binding result in assay [1] is given as “binds”.

Regarding “RNF168 (endogenous) (from UniProt Q8IYW5 1-571) (enzyme)”, the binding result in assay [1] is “binds”.

B1: RNF8 (endogenous) (enzyme, UniProt O76064 1-485)
chain: MGEPGFFVTGDRAGGRSWCLRRVGMSAGWLLLEDGCEVTVGRGFGVTYQLVSKICPLMISRNHCVLKQNPEGQWTIMDNKSLNGVWLNRARLEPLRVYSIHQGDYIQLGVPLENKENAEYEYEVTEEDWETIYPCLSPKNDQMIEKNKELRTKRKFSLDELAGPGAEGPSNLKSKINKVSCESGQPVKSQGKGEVASTPSDNLDPKLTALEPSKTTGAPIYPGFPKVTEVHHEQKASNSSASQRSLQMFKVTMSRILRLKIQMQEKHEAVMNVKKQTQKGNSKKVVQMEQELQDLQSQLCAEQAQQQARVEQLEKTFQEEEQHLQGLEIAQGEKDLKQQLAQALQEHWALMEELNRSKKDFEAIIQAKNKELEQTKEEKEKMQAQKEEVLSHMNDVLENELQCIICSEYFIEAVTLNCAHSFCSYCINEWMKRKIECPICRKDIKSKTYSLVLDNCINKMVNNLSSEVKERRIVLIRERKAKRLF
On to B1, for which the figures for the binding entry in assay [1] and in assay [2] were “binds” and “no binding (only non-irradiated cells)”, respectively.

B2: ZNF598 (enzyme, UniProt Q86UK7 1-904)
chain: MAAAGGAEGRRAALEAAAAAAPERGGGSCVLCCGDLEATALGRCDHPVCYRCSTKMRVLCEQRYCAVCREELRQVVFGKKLPAFATIPIHQLQHEKKYDIYFADGKVYALYRQLLQHECPRCPELPPFSLFGDLEQHMRRQHELFCCRLCLQHLQIFTYERKWYSRKDLARHRMQGDPDDTSHRGHPLCKFCDERYLDNDELLKHLRRDHYFCHFCDSDGAQDYYSDYAYLREHFREKHFLCEEGRCSTEQFTHAFRTEIDLKAHRTACHSRSRAEARQNRHIDLQFSYAPRHSRRNEGVVGGEDYEEVDRYSRQGRVARAGTRGAQQSRRGSWRYKREEEDREVAAAVRASVAAQQQEEARRSEDQEEGGRPKKEEAAARGPEDPRGPRRSPRTQGEGPGPKETSTNGPVSQEAFSVTGPAAPGCVGVPGALPPPSPKLKDEDFPSLSASTSSSCSTAATPGPVGLALPYAIPARGRSAFQEEDFPALVSSVPKPGTAPTSLVSAWNSSSSSKKVAQPPLSAQATGSGQPTRKAGKGSRGGRKGGPPFTQEEEEDGGPALQELLSTRPTGSVSSTLGLASIQPSKVGKKKKVGSEKPGTTLPQPPPATCPPGALQAPEAPASRAEGPVAVVVNGHTEGPAPARSAPKEPPGLPRPLGSFPCPTPQEDFPALGGPCPPRMPPPPGFSAVVLLKGTPPPPPPGLVPPISKPPPGFSGLLPSPHPACVPSPATTTTTKAPRLLPAPRAYLVPENFRERNLQLIQSIRDFLQSDEARFSEFKSHSGEFRQGLISAAQYYKSCRDLLGENFQKVFNELLVLLPDTAKQQELLSAHTDFCNREKPLSTKSKKNKKSAWQATTQQAGLDCRVCPTCQQVLAHGDASSHQALHAARDDDFPSLQAIARIIT
Consider B2, for which, in assay [1], the binding result was “binds”.

B3: ZFP91 (enzyme, UniProt Q96JP5 1-570)
chain: MPGETEEPRPPEQQDQEGGEAAKAAPEEPQQRPPEAVAAAPAGTTSSRVLRGGRDRGRAAAAAAAAAVSRRRKAEYPRRRRSSPSARPPDVPGQQPQAAKSPSPVQGKKSPRLLCIEKVTTDKDPKEEKEEEDDSALPQEVSIAASRPSRGWRSSRTSVSRHRDTENTRSSRSKTGSLQLICKSEPNTDQLDYDVGEEHQSPGGISSEEEEEEEEEMLISEEEIPFKDDPRDETYKPHLERETPKPRRKSGKVKEEKEKKEIKVEVEVEVKEEENEIREDEEPPRKRGRRRKDDKSPRLPKRRKKPPIQYVRCEMEGCGTVLAHPRYLQHHIKYQHLLKKKYVCPHPSCGRLFRLQKQLLRHAKHHTDQRDYICEYCARAFKSSHNLAVHRMIHTGEKPLQCEICGFTCRQKASLNWHMKKHDADSFYQFSCNICGKKFEKKDSVVAHKAKSHPEVLIAEALAANAGALITSTDILGTNPESLTQPSDGQGLPLLPEPLGNSTSGECLLLEAEGMSKSYCSGTERVSLMADGKIFVGSGSSGGTEGLVMNSDILGATTEVLIEDSDSAGP
On to B3, for which, in assay [1], the binding entry was “binds”.
